For experiment [1], the target named is NIPBL (mouse (endogenous in mESCs)) (UniProt Q6KCD5). Description: co-IP; IP of SMC3 and NIPBL from WT siGLO and Pds5a-/- siPds5b mESC nuclear lysates (Benzonase-digested), high stringency conditions; antibody on Protein G Dynabeads; western blot. A general note: Immunoblotting shows a protein as a band on a membrane.
Experiment [2] deals with T1, PDS5B (mouse (endogenous in mESCs)) (UniProt Q4VA53).
T1 sequence: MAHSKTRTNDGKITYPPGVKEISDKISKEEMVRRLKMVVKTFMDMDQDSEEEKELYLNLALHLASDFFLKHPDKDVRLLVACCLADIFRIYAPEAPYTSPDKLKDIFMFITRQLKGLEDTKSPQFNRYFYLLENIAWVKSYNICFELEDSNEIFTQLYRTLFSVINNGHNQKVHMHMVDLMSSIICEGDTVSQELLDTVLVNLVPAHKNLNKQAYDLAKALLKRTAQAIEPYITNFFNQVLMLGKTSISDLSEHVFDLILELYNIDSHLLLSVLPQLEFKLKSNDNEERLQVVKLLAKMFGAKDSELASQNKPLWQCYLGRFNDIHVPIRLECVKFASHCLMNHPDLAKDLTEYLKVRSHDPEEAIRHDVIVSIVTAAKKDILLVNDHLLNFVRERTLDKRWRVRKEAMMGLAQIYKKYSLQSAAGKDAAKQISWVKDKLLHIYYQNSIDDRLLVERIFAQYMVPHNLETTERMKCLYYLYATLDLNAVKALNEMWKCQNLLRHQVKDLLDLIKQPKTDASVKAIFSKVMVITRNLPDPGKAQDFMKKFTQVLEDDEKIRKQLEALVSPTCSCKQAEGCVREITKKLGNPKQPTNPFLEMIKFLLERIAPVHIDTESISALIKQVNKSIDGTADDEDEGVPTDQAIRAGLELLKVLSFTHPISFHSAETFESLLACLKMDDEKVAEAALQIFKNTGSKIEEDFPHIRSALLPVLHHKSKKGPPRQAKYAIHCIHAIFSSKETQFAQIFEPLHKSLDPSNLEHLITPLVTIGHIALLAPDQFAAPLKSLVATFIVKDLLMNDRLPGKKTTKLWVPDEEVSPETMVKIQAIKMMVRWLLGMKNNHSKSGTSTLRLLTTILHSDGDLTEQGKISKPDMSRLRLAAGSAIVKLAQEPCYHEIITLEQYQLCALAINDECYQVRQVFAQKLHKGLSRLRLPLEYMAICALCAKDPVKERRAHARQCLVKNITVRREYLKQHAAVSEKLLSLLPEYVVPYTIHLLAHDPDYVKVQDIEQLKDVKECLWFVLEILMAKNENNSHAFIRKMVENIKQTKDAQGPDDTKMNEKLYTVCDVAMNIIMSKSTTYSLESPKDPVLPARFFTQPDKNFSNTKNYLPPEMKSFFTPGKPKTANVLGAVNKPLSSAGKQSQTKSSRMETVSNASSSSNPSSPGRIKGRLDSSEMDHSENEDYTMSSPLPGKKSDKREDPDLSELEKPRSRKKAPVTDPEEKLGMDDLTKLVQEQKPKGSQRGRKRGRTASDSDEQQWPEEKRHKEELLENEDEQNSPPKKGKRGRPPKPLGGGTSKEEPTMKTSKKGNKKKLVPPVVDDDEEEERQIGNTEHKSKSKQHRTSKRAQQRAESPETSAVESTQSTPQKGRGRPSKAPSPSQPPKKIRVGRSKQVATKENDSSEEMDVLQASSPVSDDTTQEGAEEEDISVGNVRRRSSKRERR
Description: co-IP; WT mESC nuclear lysates (Benzonase-digested), 100 ug protein per IP, low stringency, native (uncrosslinked) conditions as per Active Motif Nuclear Complex Co-IP Kit; antibody on Protein G Dynabeads; western blot.

Amino acid sequences for entries named in this document (tags omitted).
UniProt Q6KCD5: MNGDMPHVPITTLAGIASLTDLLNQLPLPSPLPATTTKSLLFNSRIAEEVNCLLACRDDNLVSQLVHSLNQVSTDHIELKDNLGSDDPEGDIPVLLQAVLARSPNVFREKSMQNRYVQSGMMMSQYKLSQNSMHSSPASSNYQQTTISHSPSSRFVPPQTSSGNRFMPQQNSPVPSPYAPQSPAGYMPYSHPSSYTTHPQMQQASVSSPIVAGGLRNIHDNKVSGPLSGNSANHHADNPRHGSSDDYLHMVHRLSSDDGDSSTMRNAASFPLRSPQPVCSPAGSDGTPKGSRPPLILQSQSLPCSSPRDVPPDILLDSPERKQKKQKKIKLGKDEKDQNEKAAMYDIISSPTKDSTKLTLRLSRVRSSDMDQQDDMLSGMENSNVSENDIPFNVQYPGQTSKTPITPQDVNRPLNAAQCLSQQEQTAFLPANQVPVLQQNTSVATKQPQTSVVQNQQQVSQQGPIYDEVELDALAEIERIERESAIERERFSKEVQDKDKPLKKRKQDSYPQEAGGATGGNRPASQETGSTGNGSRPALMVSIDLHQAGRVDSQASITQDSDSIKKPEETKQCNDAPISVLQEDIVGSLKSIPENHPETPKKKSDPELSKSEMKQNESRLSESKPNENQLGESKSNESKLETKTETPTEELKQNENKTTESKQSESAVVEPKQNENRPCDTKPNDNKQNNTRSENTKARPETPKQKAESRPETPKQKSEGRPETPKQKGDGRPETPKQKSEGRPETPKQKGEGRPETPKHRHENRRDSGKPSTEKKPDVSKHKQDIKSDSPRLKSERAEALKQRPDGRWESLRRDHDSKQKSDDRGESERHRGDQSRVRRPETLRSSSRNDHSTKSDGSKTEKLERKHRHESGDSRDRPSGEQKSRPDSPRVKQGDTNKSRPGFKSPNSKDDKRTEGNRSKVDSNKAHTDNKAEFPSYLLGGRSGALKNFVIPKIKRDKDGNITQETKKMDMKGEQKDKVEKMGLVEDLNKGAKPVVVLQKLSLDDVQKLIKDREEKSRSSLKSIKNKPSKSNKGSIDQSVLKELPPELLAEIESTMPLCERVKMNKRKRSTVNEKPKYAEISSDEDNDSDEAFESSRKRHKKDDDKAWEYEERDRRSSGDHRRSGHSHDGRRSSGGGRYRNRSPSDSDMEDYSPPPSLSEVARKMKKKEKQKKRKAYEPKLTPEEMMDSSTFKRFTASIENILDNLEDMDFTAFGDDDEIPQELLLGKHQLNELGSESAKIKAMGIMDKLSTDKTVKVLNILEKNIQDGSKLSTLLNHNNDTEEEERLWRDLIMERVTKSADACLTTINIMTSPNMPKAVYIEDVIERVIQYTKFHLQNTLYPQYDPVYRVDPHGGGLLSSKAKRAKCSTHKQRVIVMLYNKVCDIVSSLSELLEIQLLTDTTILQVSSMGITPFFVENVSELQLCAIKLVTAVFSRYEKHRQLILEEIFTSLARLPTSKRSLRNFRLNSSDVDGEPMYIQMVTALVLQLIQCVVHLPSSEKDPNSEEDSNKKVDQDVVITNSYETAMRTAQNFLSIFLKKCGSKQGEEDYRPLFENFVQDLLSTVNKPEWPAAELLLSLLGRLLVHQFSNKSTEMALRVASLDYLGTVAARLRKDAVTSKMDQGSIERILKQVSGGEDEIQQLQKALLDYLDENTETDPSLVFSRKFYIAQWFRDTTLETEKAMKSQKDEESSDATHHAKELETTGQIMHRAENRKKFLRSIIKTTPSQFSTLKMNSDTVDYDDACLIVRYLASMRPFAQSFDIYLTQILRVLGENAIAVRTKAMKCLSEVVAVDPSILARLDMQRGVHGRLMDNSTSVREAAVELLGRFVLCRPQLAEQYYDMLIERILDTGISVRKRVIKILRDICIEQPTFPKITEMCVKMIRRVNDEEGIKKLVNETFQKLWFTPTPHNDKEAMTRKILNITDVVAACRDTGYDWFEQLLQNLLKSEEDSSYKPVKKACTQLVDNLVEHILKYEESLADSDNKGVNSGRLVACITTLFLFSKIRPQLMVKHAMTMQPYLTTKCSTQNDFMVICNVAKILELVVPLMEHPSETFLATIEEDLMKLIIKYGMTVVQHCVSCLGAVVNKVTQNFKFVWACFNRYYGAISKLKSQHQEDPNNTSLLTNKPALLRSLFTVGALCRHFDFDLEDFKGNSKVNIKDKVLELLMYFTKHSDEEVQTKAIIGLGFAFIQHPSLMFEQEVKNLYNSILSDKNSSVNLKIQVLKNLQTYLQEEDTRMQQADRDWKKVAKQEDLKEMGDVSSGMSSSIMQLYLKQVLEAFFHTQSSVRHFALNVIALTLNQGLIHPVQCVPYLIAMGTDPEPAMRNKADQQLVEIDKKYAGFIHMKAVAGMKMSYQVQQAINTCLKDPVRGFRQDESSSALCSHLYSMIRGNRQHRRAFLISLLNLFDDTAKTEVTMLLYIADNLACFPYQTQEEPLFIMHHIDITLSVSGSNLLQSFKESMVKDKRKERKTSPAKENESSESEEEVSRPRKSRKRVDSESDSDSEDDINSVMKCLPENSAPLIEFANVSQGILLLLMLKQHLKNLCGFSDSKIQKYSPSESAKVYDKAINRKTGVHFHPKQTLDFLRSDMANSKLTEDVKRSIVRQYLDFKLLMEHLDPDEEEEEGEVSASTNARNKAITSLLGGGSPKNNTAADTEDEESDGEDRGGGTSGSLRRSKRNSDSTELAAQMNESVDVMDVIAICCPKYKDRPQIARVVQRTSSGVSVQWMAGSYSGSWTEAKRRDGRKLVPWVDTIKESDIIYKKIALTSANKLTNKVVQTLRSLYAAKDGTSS

Experiment [3] addresses T2, PDS5A (mouse (endogenous in mESCs)) (UniProt Q6A026).
T2 sequence: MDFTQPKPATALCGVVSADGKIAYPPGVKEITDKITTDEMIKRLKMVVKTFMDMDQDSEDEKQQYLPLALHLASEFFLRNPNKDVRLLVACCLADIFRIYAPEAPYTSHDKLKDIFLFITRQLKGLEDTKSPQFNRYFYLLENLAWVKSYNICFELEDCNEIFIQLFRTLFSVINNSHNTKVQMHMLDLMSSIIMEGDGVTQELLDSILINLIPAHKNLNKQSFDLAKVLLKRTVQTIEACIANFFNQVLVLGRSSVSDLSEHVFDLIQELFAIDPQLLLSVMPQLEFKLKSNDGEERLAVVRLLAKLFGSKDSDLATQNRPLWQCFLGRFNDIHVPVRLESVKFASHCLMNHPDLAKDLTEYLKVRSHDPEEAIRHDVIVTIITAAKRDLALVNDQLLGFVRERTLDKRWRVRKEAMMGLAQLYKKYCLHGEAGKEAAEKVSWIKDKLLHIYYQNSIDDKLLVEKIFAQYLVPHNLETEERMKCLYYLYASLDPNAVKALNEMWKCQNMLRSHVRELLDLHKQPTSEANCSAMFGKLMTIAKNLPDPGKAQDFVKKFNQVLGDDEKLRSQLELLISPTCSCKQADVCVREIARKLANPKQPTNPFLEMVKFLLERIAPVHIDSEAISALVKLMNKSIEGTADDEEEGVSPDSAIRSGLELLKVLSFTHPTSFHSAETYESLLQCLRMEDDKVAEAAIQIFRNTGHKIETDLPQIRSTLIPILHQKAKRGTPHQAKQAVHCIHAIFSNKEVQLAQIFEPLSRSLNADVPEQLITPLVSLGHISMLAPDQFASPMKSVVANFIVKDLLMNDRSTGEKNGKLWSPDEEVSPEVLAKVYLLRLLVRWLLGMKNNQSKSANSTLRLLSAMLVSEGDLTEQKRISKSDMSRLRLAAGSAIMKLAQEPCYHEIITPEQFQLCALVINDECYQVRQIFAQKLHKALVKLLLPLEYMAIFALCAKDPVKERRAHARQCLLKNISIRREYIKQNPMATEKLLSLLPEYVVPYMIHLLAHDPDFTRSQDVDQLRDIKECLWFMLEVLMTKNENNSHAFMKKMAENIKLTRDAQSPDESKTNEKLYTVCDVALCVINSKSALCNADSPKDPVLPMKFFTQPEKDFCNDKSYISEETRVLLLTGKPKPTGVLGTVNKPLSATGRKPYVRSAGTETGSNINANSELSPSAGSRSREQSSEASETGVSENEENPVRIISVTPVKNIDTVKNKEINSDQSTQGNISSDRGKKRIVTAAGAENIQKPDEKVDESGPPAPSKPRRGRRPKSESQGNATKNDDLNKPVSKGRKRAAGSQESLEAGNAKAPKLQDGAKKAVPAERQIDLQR
Described as above.

The target in experiment [4] is T1, PDS5B (mouse (endogenous in mESCs)). Description: co-IP; WT mESC nuclear lysates (Benzonase-digested), 100 ug protein per IP, high stringency (high salt and detergent), native (uncrosslinked) conditions as per Active Motif Nuclear Complex Co-IP Kit; antibody on Protein G Dynabeads; western blot.
For experiment [5], the target named is T2, PDS5A (mouse (endogenous in mESCs)). The experiment is described as above.

No constants are given. Whether binding was seen depends on the method and setting. Binding seen in cells or lysates may run through a third protein. Some entries that bind do so weakly or less than the wild type. For some assays here: Tags and fused reporters may be left off the sequences shown.

B1: PDS5A (protein, UniProt Q6A026 1-1332)
chain: T2 sequence
B1: the binding entry in experiment [1] is “binds”.

B2: STAG2 (protein, UniProt O35638 1-1231)
chain: MIAAPEIPTDFNLLQESETHFSSDTDFEDIEGKNQKQGKGKTCKKGKKGPAEKGKSGNGGGKPPSGSNRMNGHHQQNGVENMMLFEVVKMGKSAMQSVVDDWIESYKHDRDIALLDLINFFIQCSGCKGVVTAEMFRHMQNSEIIRKMTEEFDEDSGDYPLTMAGPQWKKFKSSFCEFIGVLVRQCQYSIIYDEYMMDTVISLLTGLSDSQVRAFRHTSTLAAMKLMTALVNVALNLSINMDNTQRQYEAERNKMIGKRANERLELLLQKRKELQENQDEIENMMNAIFKGVFVHRYRDAIAEIRAICIEEIGIWMKMYSDAFLNDSYLKYVGWTMHDKQGEVRLKCLTALQGLYYNKELNSKLELFTSRFKDRIVSMTLDKEYDVAVQAIKLLTLVLQSSEEVLTAEDCENVYHLVYSAHRPVAVAAGEFLYKKLFSRRDPEEDGLMKRRGRQGPNANLVKTLVFFFLESELHEHAAYLVDSMWDCATELLKDWECMNSLLLEEPLSGEEALTDRQESALIEIMLCTIRQAAECHPPVGRGTGKRVLTAKEKKTQLDDRTRITELFAVALPQLLAKYSVDAEKVTNLLQLPQYFDLEIYTTGRLEKHLDALLRQIRNIVEKHTDTDVLEACSKTYHALCNEEFTIFNRVDISRSQLIDELADKFNRLLEDFLQEGEEPDEDDAYQVLSTLKRITAFHNAHDLSKWDLFACNYKLLKTGIENGDMPEQIVIHALQCAHYVILWQLAKITESTSTKEDLLRLKKQMRVFCQICQHYLTNVNTTVKEQAFTILCDILMIFSHQIMSGGRDMLEPLVYTPDSSLQSELLSFILDHVFIEQDDDSNSADGQQEDEASKIEALHKRRNLLAAFCKLIVYTVVEMNTAADIFKQYMKYYNDYGDIIKETMSKTRQIDKIQCAKTLILSLQQLFNEMIQENGYNFDRSSSTFSGIKELARRFALTFGLDQLKTREAIAMLHKDGIEFAFKEPNPQGESHPPLNLAFLDILSEFSSKLLRQDKRTVYVYLEKFMTFQMSLRREDVWLPLMSYRNSLLAGGDDDTMSVISGMSSRGSTVRSKKSKPSTGKRKVVEGMQLALPEESSSSDSMWLSREQTLHTPVMMQTPQLTSTIMREPKRLRPEDSFMSVYPMQAEHHQTPLDYNRRGTSLMEDDEEPIVEDVMMSSEGRIEDLNEGMDFDTMDIDLPPSKNRRERTELKPDFFDPASIMDESVLGVSMF
Regarding B2, the binding entry in experiment [2], in experiment [3], in experiment [4] and in experiment [5] was “binds” in each case.

The values are drawn from paper PMC9392266.
